According to PubChem BioAssay AID1259354 (Paczesny and Yang Labs, IUPUI and University of Michigan, 2018):
The whole screen tested about 78,000 compounds, of which about 1,800 (2.3%) were called active. The inconclusive results got no clear call from the source; some entries with a clear call stand among them for comparison. Cut-off read from the data, not from the text of the source: active = inhibition above about 30%; inconclusive = mostly about 10% to 28%; inactive = weaker than that.

The chains behind the UniProt entries cited, without tags or fusion partners. Where a name states a change or a piece, a line headed by the entry shows the natural chain unless it says otherwise.
UniProt Q01638: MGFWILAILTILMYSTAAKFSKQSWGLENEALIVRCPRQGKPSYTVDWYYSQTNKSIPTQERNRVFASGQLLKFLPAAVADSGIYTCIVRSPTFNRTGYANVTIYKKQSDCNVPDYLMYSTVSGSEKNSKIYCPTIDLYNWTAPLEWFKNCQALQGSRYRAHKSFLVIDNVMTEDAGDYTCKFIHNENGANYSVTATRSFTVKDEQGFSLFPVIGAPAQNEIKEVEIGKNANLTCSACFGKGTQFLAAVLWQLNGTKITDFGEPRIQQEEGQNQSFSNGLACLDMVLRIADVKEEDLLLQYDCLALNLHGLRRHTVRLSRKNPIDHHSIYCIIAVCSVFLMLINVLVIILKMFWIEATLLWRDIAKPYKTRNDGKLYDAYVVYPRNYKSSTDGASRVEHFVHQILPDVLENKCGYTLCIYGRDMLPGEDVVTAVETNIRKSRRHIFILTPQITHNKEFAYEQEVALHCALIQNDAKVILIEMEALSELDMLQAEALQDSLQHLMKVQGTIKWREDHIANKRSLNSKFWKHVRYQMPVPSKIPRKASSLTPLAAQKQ

Each compound was assayed against Interleukin-1 receptor-like 1 (Homo sapiens) (UniProt Q01638) (assay: blocks human ST2 binding to IL-33, primary screen, biochemical, AlphaLISA (AID 1259354)). Settings: AlphaLISA ST2-Fc/biotin-IL-33 interaction, 1 h; at 17 µM, hits give high values.

SMILES | inhibition
CCC(C)NC(=O)c1cc(-c2ccc(F)cc2)on1 (stereo not given) | inactive
O=C(C1CCCCN1S(=O)(=O)c1ccc(Cl)cc1)N1CCCCCC1 (stereo not given) | inactive
CN(C)CC(=O)Nc1ccc2n(c1=O)C[C@H]1C[C@@H]2CN(C(=O)c2ccc3ccccc3c2)C1 | inconclusive: 15%
CCCOC(=O)C1=C(C)NC2=C(C(=O)C(C(=O)OC)C(C)C2)C1c1ccc(O)c(OCC)c1 (stereo not given) | inactive
O=C(NC1CCCC1)c1oc(=O)c2ccccc2c1-c1ccccc1 | inconclusive: 17%
CCOC(=O)C1(CCOc2ccccc2)CCN(CC2=Cc3cccc(OC)c3OC2)CC1 | inconclusive: 18%
Cc1cnc(C(=O)N2CCC(CCC(=O)Nc3ccc4c(c3)OCCO4)CC2)cn1 | inconclusive: 10%
O=C(CCc1ccccc1)Nc1c(-c2ccccc2)nc2ccccn12 | inactive
COC1=CC(=O)O[C@@H](CCc2ccccc2)[C@@H]1O | inconclusive: 10%
c1ccc2sc([C@H]3CCN(C4CCOCC4)C3)nc2c1 | inactive
CCOC(=O)C1=C(N)OC2=C(C(=O)CC(c3ccccc3)C2)C1c1ccccc1C (stereo not given) | inactive
CCSc1nc2c(c(=O)[nH]1)C(c1cccnc1)C1=C(CC(C)(C)CC1=O)N2 (stereo not given) | inconclusive: 15%
COc1cc(OC)cc(-c2cc3nc(C)c(CCC(=O)NCc4cccs4)c(C)n3n2)c1 | inconclusive: 15%
O=C(Cn1cnc2c(cnn2-c2ccc(F)cc2)c1=O)N1CCCCCC1 | inconclusive: 16%
CN(C)c1ccc(C(=O)N2CCN3C(=O)[C@H](Cc4ccc(F)cc4)NC(=O)[C@H]3C2)cc1 | inconclusive: 10%
Cc1cc([N+](=O)[O-])nn1C(=O)Cc1ccccc1 | inactive
CC(C)(C)c1ccc(S(=O)(=O)NCc2ccc(S(N)(=O)=O)cc2)cc1 | inactive
Cc1cn(CC(=O)N2CCCC(Nc3ccc(C(C)C)cc3)C2)c(=O)[nH]c1=O (stereo not given) | inactive
O=C(Nc1nnc(-c2ccccc2Cl)o1)c1ccc(S(=O)(=O)N2CCOCC2)cc1 | inconclusive: 12%
N#CC1=C(N)Oc2c(c(=O)oc3ccccc23)[C@]12C(=O)N(CC(N)=O)c1ccccc12 | inactive
O=C(Nc1cc(-c2nc3ccccc3s2)ccc1Cl)c1ccco1 | active: 39%
O=C(COc1ccccn1)c1ccc(Br)cc1 | inconclusive: 18%
CC(Nc1ncnc2ccc(Br)cc12)c1ccccc1 (stereo not given) | inactive

SMILES | inhibition
COc1ccc(NS(=O)(=O)c2cc(Br)cc3c2N(C(C)=O)C(C)C3)cc1 (stereo not given) | inconclusive: 14%
CCn1nc(C)c(NC(=O)CN2CCC(O)(c3ccc(Cl)cc3)CC2)c1C | inconclusive: 23%
CCOCCN1CCC(=O)N(Cc2ccccc2)C(CC)C1 (stereo not given) | inactive
COc1ccc(/C=C/C(=O)NCC2Cc3cc(F)cc(-c4nc(C)cnc4C)c3O2)cc1OC (stereo not given) | inactive
Cc1cc(Cl)ccc1N=Cc1nc(-c2ccc(Br)cc2)oc1O | inconclusive: 14%
O=[N+]([O-])c1ccccc1/C=C/CN1CCN(Cc2ccc3c(c2)OCO3)CC1 | inconclusive: 15%
Cc1nc2sccn2c1C(=O)N1[C@H]2CCNC[C@@H]1CC2 | inactive
CN(Cc1ccc(C(=O)Nc2cnn(C)c2)cc1)CC1CCCO1 (stereo not given) | inconclusive: 18%
O=C(O)c1ccc(Oc2ccc3c(c2)C(=O)N(c2ccccc2O)C3=O)cc1 | inconclusive: 12%
CCOC(=O)Cn1c(=O)n(-c2ccc(F)cc2)c2nc(-c3ccc(OC)cc3)nc(C(N)=O)c21 | inconclusive: 13%
CCN(CC)CCn1c(SCC(=O)N2CCC(C)CC2)nc2c(sc3ccccc32)c1=O | inactive
CCCOc1ccc(C(O)=C2C(=O)C(=O)N(CCN3CCOCC3)C2c2ccc(C)o2)cc1 (stereo not given) | inactive
CNC(=O)c1cc(Sc2nnc(C)s2)nc2ccccc12 | inconclusive: 11%
COC(=O)c1sc2ccccc2c1NC(=O)c1ccc(S(=O)(=O)N2CCCC2)cc1 | inactive
Cc1cc(C)n(Cc2ccc(C(=O)N3CCCC(O)(CO)C3)cc2)n1 (stereo not given) | inactive
COc1ccc2c(c1)C(C)(C)C1(C=Cc3cc([N+](=O)[O-])cc(OC)c3O1)N2C (stereo not given) | active: 73%
O=c1oc2c(-c3ccc(Cl)cc3)cc(O)cc2s1 | inactive
CC(=O)Nc1ccc(Nc2c3c(c(C#N)c4nc5ccccc5n24)CCC3)cc1 | inconclusive: 12%
CCOC(=O)CSc1nc2sc3c(c2c(=O)n1-c1ccc(C)cc1)CC(C)(C)OC3 | inactive
O=C(N[C@@H]1CN(Cc2ccc(CO)o2)CCC[C@H]1O)c1ccc(OCc2ccccc2)cc1 | inconclusive: 14%
COc1ccc(N=Cc2cc3c(cc2O)OC(N)=C(C#N)C3c2cccc(F)c2)cc1 (stereo not given) | active: 33%
CCCCOC(=O)C1=C(C)Nc2ncnn2C1c1ccccc1OC (stereo not given) | inactive

Among those listed so far, these contain an NH in an aromatic ring.
SMILES | inhibition
CCSc1nc2c(c(=O)[nH]1)C(c1cccnc1)C1=C(CC(C)(C)CC1=O)N2 (stereo not given) | inconclusive: 15%
Cc1cn(CC(=O)N2CCCC(Nc3ccc(C(C)C)cc3)C2)c(=O)[nH]c1=O (stereo not given) | inactive
